These are literature values, as cited in patent US6443892B1, “Sweat collecting device and methods for use and detection of tampering” (The United States of America as represented by the …, priority 2000, dated 2002).

SMILES strings stand for the structures.

For this data set the following is noted: patch applied seven days after skin contamination, normal hygiene.
For the compound `CN1[C@H]2CC[C@@H]1[C@@H](C(=O)O)[C@@H](OC(=O)c1ccccc1)C2` [BE, benzoylecgonine], the “drug found in pad of sweat patch” value was “deposited in the pad”. With `CN[C@@H](C)Cc1ccccc1` [methamphetamine], the “drug found in pad of sweat patch” value is “deposited in the pad”. For the compound `CC(=O)Oc1ccc2c3c1O[C@H]1[C@@H](OC(C)=O)C=C[C@H]4[C@@H](C2)N(C)CC[C@@]341` [heroin], the “drug found in pad of sweat patch” value is given as “deposited in the pad”.
